PMC12425804
Results are given in words; binding and its absence hold for the method and conditions named. Binding seen in cells or lysates may run through a third protein. Some binding calls cover weakened binding; strength is not graded here. Values belong to the molecule of their own block, whether it stands above or below them.

Chains of the proteins cited; added tags and fusions are not shown. Lines headed by an entry give the natural chain unless they say otherwise; changes in a name come on top.
UniProt Q3TKT4: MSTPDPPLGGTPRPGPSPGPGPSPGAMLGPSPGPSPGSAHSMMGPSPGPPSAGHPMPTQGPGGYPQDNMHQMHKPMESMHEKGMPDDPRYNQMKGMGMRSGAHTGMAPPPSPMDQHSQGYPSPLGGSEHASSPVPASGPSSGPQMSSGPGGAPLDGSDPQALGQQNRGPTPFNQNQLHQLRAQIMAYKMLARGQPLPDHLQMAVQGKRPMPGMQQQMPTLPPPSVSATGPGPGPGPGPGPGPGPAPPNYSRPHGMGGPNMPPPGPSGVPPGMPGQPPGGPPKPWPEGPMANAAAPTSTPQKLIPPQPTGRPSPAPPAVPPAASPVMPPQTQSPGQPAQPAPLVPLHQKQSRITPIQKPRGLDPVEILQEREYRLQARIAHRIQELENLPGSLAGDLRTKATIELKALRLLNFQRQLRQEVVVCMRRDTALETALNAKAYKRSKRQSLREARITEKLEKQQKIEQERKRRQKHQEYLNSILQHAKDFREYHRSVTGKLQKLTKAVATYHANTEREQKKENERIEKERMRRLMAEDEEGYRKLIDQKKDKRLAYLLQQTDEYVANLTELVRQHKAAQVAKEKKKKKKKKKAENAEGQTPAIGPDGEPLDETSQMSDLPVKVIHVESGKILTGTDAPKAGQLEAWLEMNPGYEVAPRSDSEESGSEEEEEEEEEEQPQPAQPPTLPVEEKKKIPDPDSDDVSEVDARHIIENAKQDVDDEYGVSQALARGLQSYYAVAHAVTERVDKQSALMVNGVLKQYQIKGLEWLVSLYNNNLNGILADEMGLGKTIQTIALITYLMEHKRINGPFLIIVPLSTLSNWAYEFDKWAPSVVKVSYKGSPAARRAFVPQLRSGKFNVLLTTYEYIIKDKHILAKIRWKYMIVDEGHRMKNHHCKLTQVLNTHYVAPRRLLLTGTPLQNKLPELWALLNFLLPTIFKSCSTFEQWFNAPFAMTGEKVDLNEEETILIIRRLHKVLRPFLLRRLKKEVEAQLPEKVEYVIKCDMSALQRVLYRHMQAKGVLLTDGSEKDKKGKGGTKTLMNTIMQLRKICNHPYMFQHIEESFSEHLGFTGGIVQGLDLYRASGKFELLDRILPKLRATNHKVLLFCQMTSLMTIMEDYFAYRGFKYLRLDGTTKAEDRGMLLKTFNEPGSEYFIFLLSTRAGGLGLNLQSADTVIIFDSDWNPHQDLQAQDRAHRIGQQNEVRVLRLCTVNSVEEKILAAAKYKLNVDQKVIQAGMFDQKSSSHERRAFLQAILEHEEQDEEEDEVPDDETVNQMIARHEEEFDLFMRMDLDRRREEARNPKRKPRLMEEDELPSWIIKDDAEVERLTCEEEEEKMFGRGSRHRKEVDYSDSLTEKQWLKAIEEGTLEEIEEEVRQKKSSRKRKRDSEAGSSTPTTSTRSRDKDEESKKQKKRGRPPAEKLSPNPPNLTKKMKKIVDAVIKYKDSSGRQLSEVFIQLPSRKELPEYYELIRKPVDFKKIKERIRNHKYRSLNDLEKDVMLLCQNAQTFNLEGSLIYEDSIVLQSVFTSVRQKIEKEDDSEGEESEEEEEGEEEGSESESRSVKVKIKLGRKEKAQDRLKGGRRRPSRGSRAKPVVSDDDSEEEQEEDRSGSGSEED
UniProt A2BH40: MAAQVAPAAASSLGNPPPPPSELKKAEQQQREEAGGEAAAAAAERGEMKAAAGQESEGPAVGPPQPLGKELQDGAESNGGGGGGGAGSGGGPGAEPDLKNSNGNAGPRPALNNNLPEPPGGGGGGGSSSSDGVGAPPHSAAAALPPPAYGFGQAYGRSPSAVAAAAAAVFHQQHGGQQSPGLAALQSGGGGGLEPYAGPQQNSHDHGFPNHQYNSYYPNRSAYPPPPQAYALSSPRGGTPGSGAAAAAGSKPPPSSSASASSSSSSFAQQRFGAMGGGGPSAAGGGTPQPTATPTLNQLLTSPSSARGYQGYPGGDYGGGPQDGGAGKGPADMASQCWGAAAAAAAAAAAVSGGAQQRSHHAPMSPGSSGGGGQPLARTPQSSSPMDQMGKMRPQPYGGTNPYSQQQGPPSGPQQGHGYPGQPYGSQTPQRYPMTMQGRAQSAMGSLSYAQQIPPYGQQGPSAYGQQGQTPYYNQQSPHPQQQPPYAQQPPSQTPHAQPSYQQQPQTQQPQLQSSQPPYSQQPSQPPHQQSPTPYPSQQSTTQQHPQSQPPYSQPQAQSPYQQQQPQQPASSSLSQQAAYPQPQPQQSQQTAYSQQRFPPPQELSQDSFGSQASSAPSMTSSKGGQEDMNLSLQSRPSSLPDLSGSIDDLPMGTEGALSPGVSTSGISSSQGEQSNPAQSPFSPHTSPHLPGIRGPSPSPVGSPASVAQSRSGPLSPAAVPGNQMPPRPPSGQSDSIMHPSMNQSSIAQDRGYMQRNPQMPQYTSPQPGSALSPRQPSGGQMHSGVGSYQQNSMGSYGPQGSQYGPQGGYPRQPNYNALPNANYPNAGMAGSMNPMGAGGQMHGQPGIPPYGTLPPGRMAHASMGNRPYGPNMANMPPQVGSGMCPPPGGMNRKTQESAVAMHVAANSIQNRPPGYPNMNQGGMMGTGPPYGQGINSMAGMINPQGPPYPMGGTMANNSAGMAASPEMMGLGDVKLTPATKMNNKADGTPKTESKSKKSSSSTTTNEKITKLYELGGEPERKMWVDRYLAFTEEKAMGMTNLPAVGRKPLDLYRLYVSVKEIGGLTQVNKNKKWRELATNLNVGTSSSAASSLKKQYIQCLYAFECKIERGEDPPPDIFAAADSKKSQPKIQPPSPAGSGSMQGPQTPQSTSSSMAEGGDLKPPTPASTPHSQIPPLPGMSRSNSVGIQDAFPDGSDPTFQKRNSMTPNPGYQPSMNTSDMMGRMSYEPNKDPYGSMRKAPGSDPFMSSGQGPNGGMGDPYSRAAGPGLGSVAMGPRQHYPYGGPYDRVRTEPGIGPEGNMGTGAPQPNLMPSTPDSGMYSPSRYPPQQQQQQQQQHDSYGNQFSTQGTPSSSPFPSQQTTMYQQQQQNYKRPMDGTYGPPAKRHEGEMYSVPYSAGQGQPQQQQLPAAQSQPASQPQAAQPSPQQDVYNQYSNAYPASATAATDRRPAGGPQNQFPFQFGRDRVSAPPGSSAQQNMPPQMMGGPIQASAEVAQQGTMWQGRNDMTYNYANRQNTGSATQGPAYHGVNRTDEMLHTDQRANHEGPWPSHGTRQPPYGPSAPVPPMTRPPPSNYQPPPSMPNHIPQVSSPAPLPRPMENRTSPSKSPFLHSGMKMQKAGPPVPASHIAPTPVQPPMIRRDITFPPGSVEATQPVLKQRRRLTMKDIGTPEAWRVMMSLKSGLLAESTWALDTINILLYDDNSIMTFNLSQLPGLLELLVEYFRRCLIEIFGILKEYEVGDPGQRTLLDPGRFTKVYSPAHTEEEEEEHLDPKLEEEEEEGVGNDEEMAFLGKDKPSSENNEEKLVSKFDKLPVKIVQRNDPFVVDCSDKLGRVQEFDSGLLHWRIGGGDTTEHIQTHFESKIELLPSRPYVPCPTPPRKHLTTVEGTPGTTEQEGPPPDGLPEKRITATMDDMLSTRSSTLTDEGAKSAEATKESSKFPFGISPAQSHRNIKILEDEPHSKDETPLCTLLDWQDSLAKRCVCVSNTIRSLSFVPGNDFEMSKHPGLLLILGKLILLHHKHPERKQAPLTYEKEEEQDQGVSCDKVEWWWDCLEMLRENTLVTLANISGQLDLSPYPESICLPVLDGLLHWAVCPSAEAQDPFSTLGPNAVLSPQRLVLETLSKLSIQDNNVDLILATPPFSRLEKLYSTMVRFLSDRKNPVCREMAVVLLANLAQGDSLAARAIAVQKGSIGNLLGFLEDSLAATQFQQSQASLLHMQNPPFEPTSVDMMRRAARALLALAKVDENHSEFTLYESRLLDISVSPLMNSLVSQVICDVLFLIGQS
UniProt Q8BSQ9: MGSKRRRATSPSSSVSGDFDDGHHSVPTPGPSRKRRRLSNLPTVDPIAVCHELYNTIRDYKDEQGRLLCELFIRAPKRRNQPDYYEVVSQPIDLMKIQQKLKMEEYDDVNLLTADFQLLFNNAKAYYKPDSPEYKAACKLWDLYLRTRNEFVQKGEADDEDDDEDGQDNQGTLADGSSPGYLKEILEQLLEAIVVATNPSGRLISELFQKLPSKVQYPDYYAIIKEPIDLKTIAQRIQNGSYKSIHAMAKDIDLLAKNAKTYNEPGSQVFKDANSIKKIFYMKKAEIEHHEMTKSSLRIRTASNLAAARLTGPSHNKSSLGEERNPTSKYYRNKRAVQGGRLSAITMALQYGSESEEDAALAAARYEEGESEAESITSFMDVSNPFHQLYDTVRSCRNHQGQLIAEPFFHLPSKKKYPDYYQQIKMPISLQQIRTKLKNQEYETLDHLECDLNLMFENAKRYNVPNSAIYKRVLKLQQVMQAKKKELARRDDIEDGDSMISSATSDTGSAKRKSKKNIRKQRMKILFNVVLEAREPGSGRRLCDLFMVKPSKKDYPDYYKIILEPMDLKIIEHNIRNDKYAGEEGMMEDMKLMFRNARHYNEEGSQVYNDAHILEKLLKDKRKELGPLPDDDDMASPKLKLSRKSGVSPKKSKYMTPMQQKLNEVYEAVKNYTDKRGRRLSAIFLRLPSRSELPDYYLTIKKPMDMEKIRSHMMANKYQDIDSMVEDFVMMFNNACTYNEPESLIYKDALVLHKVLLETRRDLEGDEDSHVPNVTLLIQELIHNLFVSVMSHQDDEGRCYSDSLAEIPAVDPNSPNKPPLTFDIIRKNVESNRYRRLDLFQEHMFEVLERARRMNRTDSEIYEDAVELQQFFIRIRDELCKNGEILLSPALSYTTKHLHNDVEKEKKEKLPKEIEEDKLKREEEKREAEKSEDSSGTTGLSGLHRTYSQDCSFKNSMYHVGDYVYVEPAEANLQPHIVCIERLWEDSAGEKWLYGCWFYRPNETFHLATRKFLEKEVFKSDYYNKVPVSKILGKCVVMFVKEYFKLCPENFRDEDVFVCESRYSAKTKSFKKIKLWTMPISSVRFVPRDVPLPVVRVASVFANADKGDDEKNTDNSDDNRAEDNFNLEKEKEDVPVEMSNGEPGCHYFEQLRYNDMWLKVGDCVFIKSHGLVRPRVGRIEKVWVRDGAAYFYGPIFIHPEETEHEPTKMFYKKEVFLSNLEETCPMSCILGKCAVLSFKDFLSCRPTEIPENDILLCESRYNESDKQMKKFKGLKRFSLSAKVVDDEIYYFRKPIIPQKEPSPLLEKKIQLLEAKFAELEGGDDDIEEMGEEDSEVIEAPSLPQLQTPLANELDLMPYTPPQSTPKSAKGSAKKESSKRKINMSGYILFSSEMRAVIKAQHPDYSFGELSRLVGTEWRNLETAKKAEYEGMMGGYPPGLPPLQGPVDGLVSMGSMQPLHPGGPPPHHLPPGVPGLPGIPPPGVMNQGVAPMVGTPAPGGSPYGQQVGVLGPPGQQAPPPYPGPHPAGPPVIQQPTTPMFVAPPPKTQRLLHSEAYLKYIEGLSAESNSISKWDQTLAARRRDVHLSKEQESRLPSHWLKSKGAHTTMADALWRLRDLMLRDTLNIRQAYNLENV

Legend:
[1] = biological target: BRG1 with FKBP12-F36V-HA knock-in at the 3' end of Brg1 (Brg1-knock-in mES cells) (mouse (endogenous in mES cells)) (UniProt Q3TKT4); assay: co-IP; BRG1 immunoprecipitation from nuclear lysates of WT or Brg1-KI mES cells; antibody coupled to Dynabeads, 3 h at 4 °C; wash buffer 50 mM Tris pH 8.0, 150 mM NaCl, 1 mM EDTA, 10% glycerol, 0.5% Triton X-100; western blot
[2] = biological target: BRG1, the ATPase subunit of the mSWI/SNF complex (untagged, wild-type mES cells) (mouse (endogenous in mES cells)) (UniProt Q3TKT4); assay: as above

binding [1]: binds
binding [2]: binds
Molecule: ARID1A (cBAF subunit) (from UniProt A2BH40 1-2283)

binding [1]: binds
binding [2]: binds
Molecule: PBRM1 (PBAF subunit) (from UniProt Q8BSQ9 1-1634)

binding [1]: binds
binding [2]: binds
B1: BRD9 (ncBAF subunit) (protein, UniProt Q3UQU0 1-596)
chain: MGKKHKKHKAEWRSSYEDYTDTPLEKPLKLVLKVGGSEVTELSGSGHDSSYYDDRSDHERERHREKKKKKKKKSEKEKHLDEEERRKRKEEKKRKREKEHCDSEGEADAFDPGKKVEVEPPPDRPVRACRTQPAENESTPIQRLLEHFLRQLQRKDPHGFFAFPVTDAIAPGYSMIIKHPMDFGTMKDKIVANEYKSVTEFKADFKLMCDNAMTYNRPDTVYYKLAKKILHAGFKMMSKAALLGSEDPAAEEPVPEVVPVQVETTKKSKKPSREVISCMFEPEGNACSLTDSTAEEHVLALVEHAADEARDRINRFLPGGKMGYLKKLGDGSLLYSVVNAPEPDADEEETHPVDLSSLSSKLLPGFTTLGFKDERRNKVTFLSSASTALSMQNNSVFGDLKSDEMELLYSAYGDETGVQCALSLQEFVKDAGSYSKKMVDDLLDQITGGDHSRMIFQLKQRRSIPMRPADEMKVGDPLGESGGPVLDFMSMKQYPDVSLDVSMLSSLGKVKKELDHEDSHLNLDETARLLQDLHEAQAERGGSRPSSNLSSLSTASEREHPPPGSPSRLSVGEQPDVAHDPYEFLQSPEPAAPAKN
